Structures can show the parent of a compound that is named as a salt. Some results were stated once for a whole list of compounds, not compound by compound.
system: guinea-pig ileum strips (LTD4); experiment: inhibition of LTD4-induced contraction of guinea-pig ileum strips; format: cell-based; conditions: LTD4 at 10^-9 M; compound added 2 minutes prior; atropine and indomethacin present
Procedure: Leukotriene antagonists may be identified by observing the contractions elicited in preparations of guinea-pig ileum strips suspended in a physiological buffer by addition of pure leukotriene D4 (LTD4) (10). The ileum strips are connected to an isotonic transducer, and the contractions are continuously recorded on a multichannel recorder. Before addition of LTD4, atropine and indomethacin are added to the buffer in order to block any cholinergic or prostaglandin mediated contractile effects. Test compounds to be studied with respect to leukotriene antagonism are dissolved in DMSO and added to the organ bath 2 minutes prior to addition of LTD4 at 10^-9 M (final concentration), the final concentration of DMSO being 0.1%, a concentration which can be shown not to affect the ileum response to LTD4. The test compounds may be added at various concentrations, often beginning at […] and then decreasing the concentration in case of antagonism.
When the compounds of the present invention were added to the ileum preparation before addition of LTD4 a significant inhibition occurred of the specific LTD4 -induced contraction. […] On other hand, contractions induced with histamine at 10^-7 M were not inhibited by these compounds even at micromolar concentrations.

Compound | concentrations at which inhibition of LTD4-induced contraction occurred
O=C(O)[C@H](O)[C@H](Nc1cccc(OCc2ccc3ccccc3n2)c1)c1cc(F)ccc1F (relative stereo) [Example 38] | submicromolar range
O=C(O)[C@H](O)[C@H](Nc1cccc(OCc2ccc3ccccc3n2)c1)c1ccc(Cl)cc1 (relative stereo) [Example 34] | submicromolar range
O=C(O)[C@@H](O)[C@@H](Nc1cccc(OCc2ccc3ccccc3n2)c1)c1ccccc1 [Example 13, (2S,3S)-3-[3-(2-quinolylmethyloxy)-anilino]-2-hydroxy-3-phenyl propionic acid, sodium salt] | submicromolar range
O=C(O)[C@H](O)[C@H](Nc1cccc(OCc2ccc3ccccc3n2)c1)c1ccc(F)cc1 (relative stereo) [Example 32, (2R,3R;2S,3S)-3-[3-(2-Quinolylmethyloxy)-anilino]-2-hydroxy-3-(4-fluorophenyl) propionic acid, semihydrate] | submicromolar range
O=C(O)[C@H](O)[C@H](Nc1cccc(OCc2ccc3ccccc3n2)c1)c1cccc(Cl)c1 (relative stereo) [Example 29, (2R,3R;2S,3S)-3-[3-(2-Quinolylmethyloxy)-anilino]-2-hydroxy-3-(3-chlorophenyl) propionic acid, sodium salt, trihydrate] | submicromolar range
O=C(O)[C@H](O)[C@H](Nc1cccc(OCc2ccc3ccccc3n2)c1)c1ccccc1F (relative stereo) [Example 26, (2R,3R;2S,3S)-3-[3-(2-Quinolylmethyloxy)-anilino]-2-hydroxy-3-(2-fluorophenyl) propionic acid, sodium salt, trihydrate] | submicromolar range
CCOC(=O)[C@H](O)[C@H](Nc1cccc(OCc2ccc3ccccc3n2)c1)c1ccccc1 (relative stereo) [Example 4, (2R,3R;2S,3S)-3-[3-(2-Quinolylmethyloxy)-anilino]-2-hydroxy-3-phenyl propionic acid ethyl ester] | submicromolar range
O=C(O)[C@H](O)[C@H](Nc1cccc(OCc2ccc3ccccc3n2)c1)c1ccc(F)cc1F (relative stereo) [Example 39] | submicromolar range
COc1ccccc1[C@@H](Nc1cccc(OCc2ccc3ccccc3n2)c1)[C@@H](O)C(=O)O (relative stereo) [Example 28] | submicromolar range
O=C(O)C(Nc1cccc(OCc2ccc3ccccc3n2)c1)c1ccccc1 (racemic) [Example 15, (S,R)-2-[3-(2-Quinolylmethyloxy)-anilino]-2-phenyl acetic acid] | submicromolar range
COc1ccc([C@@H](Nc2cccc(OCc3ccc4ccccc4n3)c2)[C@@H](O)C(=O)O)cc1 (relative stereo) [Example 36] | submicromolar range
Cc1ccc([C@@H](Nc2cccc(OCc3ccc4ccccc4n3)c2)[C@@H](O)C(=O)O)cc1 (relative stereo) [Example 31] | submicromolar range
O=C(O)[C@H](O)[C@H](Nc1cccc(OCc2ccc3ccccc3n2)c1)c1ccc([N+](=O)[O-])cc1 (relative stereo) [Example 37] | submicromolar range
O=C(O)[C@H](O)[C@H](Nc1cccc(OCc2ccc3ccccc3n2)c1)c1ccccc1Cl (relative stereo) [Example 27, (2R,3R;2S,3S)-3-[3-(2-Quinolylmethyloxy)-anilino]-2-hydroxy-3-(2-chlorophenyl) propionic acid, sodium salt] | submicromolar range
O=C(O)[C@H](O)[C@H](Nc1cccc(OCc2ccc3ccccc3n2)c1)c1ccccc1 [Example 12, (2R,3R)-3-[3-(2-quinolylmethyloxy)-anilino]-2-hydroxy-3-phenyl propionic acid, sodium salt] | submicromolar range
O=C(O)[C@H](O)[C@H](Nc1cccc(OCc2ccc3ccccc3n2)c1)c1ccc(Cl)cc1Cl (relative stereo) [Example 40] | submicromolar range
O=C(O)[C@H](O)[C@H](Nc1ccc(OCc2ccc3ccccc3n2)cc1)c1ccccc1 (relative stereo) [Example 2, (2R,3R;2S,3S)-3-[4-(2-Quinolylmethyloxy)-anilino]-2-hydroxy-3-phenyl propionic acid, sodium salt] | submicromolar range
O=C(O)[C@H](O)[C@@H](Nc1cccc(OCc2ccc3ccccc3n2)c1)c1ccccc1 [Example 42, (2R,3S)-3-[3-(2-Quinolylmethyloxy)-anilino]-2-hydroxy-3-phenyl propionic acid, sodium salt] | submicromolar range
O=C(O)[C@H](O)[C@H](Nc1cccc(OCc2ccc3ccccc3n2)c1)c1ccccc1 (relative stereo) [Example 1, (2R,3R;2S,3S)-3-[3-(2-Quinolylmethoxy)-anilino]-2-hydroxy-3-phenyl propionic acid, sodium salt] | submicromolar range
Cc1ccccc1[C@@H](Nc1cccc(OCc2ccc3ccccc3n2)c1)[C@@H](O)C(=O)O (relative stereo) [Example 25] | submicromolar range
O=C(O)[C@H](O)[C@H](Nc1ccccc1OCc1ccc2ccccc2n1)c1ccccc1 (relative stereo) [Example 3, (2R,3R;2S,3S)-3-[2-(2-Quinolylmethyloxy)-anilino]-2-hydroxy-3-phenyl propionic acid, sodium salt] | submicromolar range
O=C(O)[C@H](O)[C@@H](Nc1cccc(OCc2ccc3ccccc3n2)c1)c1ccccc1 (relative stereo) [Example 41, (2R,3R;2S,3R)-3-[3-(2-Quinolylmethyloxy)-anilino]-2-hydroxy-3-phenyl propionic acid, sodium salt] | submicromolar range
O=C(O)[C@@H](O)[C@H](Nc1cccc(OCc2ccc3ccccc3n2)c1)c1ccccc1 [Example 43, (2R,3R)-3-[3-(2-Quinolylmethyloxy)-anilino]-2-hydroxy-3-phenyl propionic acid, sodium salt] | submicromolar range
O=C(O)[C@H](O)[C@H](Nc1cccc(OCc2ccc3ccccc3n2)c1)c1cccc(F)c1 (relative stereo) [Example 30] | submicromolar range
